Experimental data as given in patent US4250094A, “1-(Aminoalkyl) substituted-6-phenyl-4H-s-triazolo[4,3-a][1,4]benzodiazepines” (priority 1979, dated 1981).

System: oxotremorine
Experiment: Hypothermic tests with oxotremorine: body temperature change
Assay type: in vivo, mice
Details: ip, 3 mg/kg, 0.5 h
From the text: Hypothermic tests with oxotermorine: [1-(4-pyrrolidino-2-butynyl)-2-pyrrolidinone].

## CN1[C@@H]2CC[C@H]1C[C@@H](OC(=O)C(CO)c1ccccc1)C2 (stereo partly shown) [Atropine]
  Body Temperature °F. Change From Vehicle Control After 15 Minutes: +0.6 °F.
  Body Temperature °F. Change From Vehicle Control After 30 Minutes: - 0.6 °F.
  Body Temperature °F. Change From Vehicle Control After 60 Minutes: - 0.7 °F.
  Body Temperature °F. Change From Vehicle Control After 90 Minutes: - 0.2 °F.
